Laboratory results reported in PubChem BioAssay AID504467 (National Center for Advancing Translational Sciences (NCATS), 2011).
Screen size: about 330,000 compounds; about 7,700 (2.3%) were called active. Inconclusive results, whose numbers are uncertain, are shown with a selection of clear calls. Calls follow the shape of the dose curve; as a rule, active = well fitted inhibition curve with a large enough effect; inconclusive = small, poorly fitted or top-dose-only effect, or effect the other way; inactive = flat fitted curve, though single readings scatter. Potencies beside an inconclusive call are fits to weak or partial responses and may not hold up.

Test: qHTS screen for small molecules that inhibit ELG1-dependent DNA repair in human embryonic kidney (HEK293T) cells expressing luciferase-tagged ELG1; also: nearly all actives have a fitted effect of over 55% in size
Conditions: HEK293T ELG1-luciferase reporter, luminescence, 16 h, DNA damage induced by 5-fluorouridine; activity change, negative = inhibition: at 46.1 µM (top of the series)
Summary of the method: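 In this reporter screen, reduction of luminescence relative to DMSO vehicle indicated activity. Compounds and 5-fluorouridine were added together to 2,000 cells per well, incubated for 16 hr at 37 °C, then developed with ONE-Glo.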
% is scaled to controls: 0 for no effect and ±100 for the full control effect; potency is read from the fitted curve at half-maximal effect.

| Structure (SMILES) | Potency | activity change, negative = inhibition |
| --- | --- | --- |
| O=C(Cc1c(Cl)cccc1Cl)OCc1ccccn1 | inconclusive: 14.6 µM [activator, partial curve] |  |
| O=C(c1ccccc1)c1coc2ccc(O)c(CN3CCOCC3)c12 | inconclusive: 29.1 µM [inhibitor, partial curve, poor fit] |  |
| O=C(Nc1c2c(nn1-c1ccc(F)cc1)CS(=O)C2)c1ccc2c(c1)OCO2 (centres undefined) | inconclusive: 16.4 µM [activator, partial curve, poor fit] |  |
| N/C(=N\N=C\c1ccc(Br)o1)c1nonc1N | inconclusive: 16.4 µM [activator, partial curve] |  |
| CSc1ccccc1-c1nnc(-c2ccc(Cl)cc2)o1 | inconclusive: 5.8 µM [activator, partial curve] |  |
| CCCN1CCN(CCNC(=O)Nc2cc(C)ccc2C)CC1 | inconclusive: 20.6 µM [activator, single point] |  |
| Cc1cc(C)c(C#N)c(SCC(=O)Nc2ccc(S(=O)(=O)Nc3ncccn3)cc2)n1 |  | inactive: -8.5% |
| O=C(CCN1C(=O)c2ccccc2C1=O)Nc1ccc(-c2nc3ccccc3o2)cc1 | inconclusive: 1.16 µM [activator, partial curve] |  |
| COc1ccc(CCN2C(=O)CC(C(C)c3ccccc3)C2=O)cc1OC (centres undefined) |  | inactive: -10.3% |
| Cn1cccc1/C=N/NC(=O)CNc1cccc2ccccc12 | active: 13 µM |  |
| COc1ccc(NC(=O)C2CC(=O)N/C(=N/NC(=O)c3ccc(Cl)cc3)S2)cc1 (centres undefined) |  | inactive: 16.2% |
| CCCCn1c(N)c(N(CCOC)C(=O)c2ccc(Br)s2)c(=O)[nH]c1=O | inconclusive: 25.9 µM [activator, single point] |  |
| CCN(CC)S(=O)(=O)c1ccc(N2CCOCC2)c(NC(=O)C(=O)c2c(-c3ccccc3)cc3ccccn23)c1 | inconclusive: 11.6 µM [inhibitor, partial curve] |  |
| Cc1ccc(NC(=O)CCCCCCCCCCC2COCCO2)c(C)c1 (centres undefined) |  | inactive: -0.558% |
| Cc1cccc(CSc2nnc(-c3ccco3)o2)c1 | inconclusive: 20.6 µM [activator, single point] |  |
| Cc1cccc(N(CC(=O)NC2CCCC2)C(=O)CNC(=O)c2ccco2)c1C |  | inactive: -7.86% |
| Cc1ccc(OCCN2C(=O)C(=O)c3cc(C)ccc32)cc1 |  | inactive: -1.41% |
| CC(C)Oc1ccc(C(=O)O)cc1 | inconclusive: 8.2 µM [inhibitor, partial curve, poor fit] |  |
| COc1ccccc1NC(=O)C1=C(C)Nc2nnnn2C1c1ccccc1OC (centres undefined) |  | inactive: -0.988% |
| C=CCN(C(=O)CSc1nc2ccsc2c(=O)n1Cc1ccccn1)c1ccccc1 | inconclusive: 7.3 µM [activator, partial curve, poor fit] |  |
| CSCCC(NC(=O)c1ccccc1)C(=O)N1CCN(C(c2ccccc2)c2ccccc2)CC1 (centres undefined) | inconclusive: 16.4 µM [inhibitor, partial curve, poor fit] |  |
| CCCC(=O)Nc1cccc(-c2nc3cc(C)c(C)cc3o2)c1 | inconclusive: 7.31 µM [activator, partial curve] |  |
| CC1CN(C(=O)c2cccc(S(=O)(=O)Nc3cc(Cl)ccc3Cl)c2)CC(C)O1 (centres undefined) | inconclusive: 1.16 µM [inhibitor, partial curve, poor fit] |  |

| Structure (SMILES) | Potency | activity change, negative = inhibition |
| --- | --- | --- |
| CCOC(=O)CC(=O)CSc1ccc2nnc(-c3ccc(C)cc3)n2n1 | inconclusive: 25.9 µM [inhibitor, single point] |  |
| C=CCN(c1ccccc1)S(=O)(=O)c1ccc2c(c1)oc(=O)n2C |  | inactive: 4.66% |
| Cc1cc(C(=O)CSc2cccc[n+]2[O-])c(C)n1-c1ccccc1 | inconclusive: 2.59 µM [activator, partial curve] |  |
| Cc1ccc(C(=O)NC2CCCCCC2)cc1S(=O)(=O)N1CCOCC1 | inconclusive: 16.4 µM [activator, partial curve] |  |
| COC(=O)c1cn(NC(=O)CCC2CCCC2)c(=O)c2ccccc12 | inconclusive: 29.1 µM [activator, single point] |  |
| COC(=O)CC1=NN(c2ccc(OC)cc2)C(=O)/C1=C\c1ccc(Cl)cc1 |  | inactive: 6.85% |
| Cc1ccc(F)cc1NC(=O)CCc1c(C)[nH]c(=O)c(C#N)c1C |  | inactive: 15.6% |
| Cc1ccc2nc(Nc3nc(CSc4nc5ccccc5s4)cc(=O)[nH]3)nc(C)c2c1 | inconclusive: 9.2 µM [inhibitor, partial curve] |  |
| CCN(Cc1ccccc1)c1ccc(/C=N/NS(=O)(=O)c2ccc(C)c([N+](=O)[O-])c2)cc1 |  | inactive: 1.92% |
| CC(=O)N1c2ccc(S(=O)(=O)NCC3CCC(C(=O)NC4CCC(C)CC4)CC3)cc2CC1C (centres undefined) |  | inactive: -21.2% |
| O=C(Nc1cnccn1)c1cccc(C(F)(F)F)c1 | inconclusive: 20.6 µM [activator, partial curve, poor fit] |  |
| CCC(CC)C(=O)Nc1c2c(nn1-c1ccc(OC)cc1)CS(=O)(=O)C2 | inconclusive: 1.16 µM [inhibitor, single point] |  |
| COc1cc(-c2cc(C(=O)Nc3ccc(S(N)(=O)=O)cc3)c3ccccc3n2)cc(OC)c1OC | inconclusive: 10.3 µM [inhibitor, partial curve, poor fit] |  |
| CCOC(=O)C1CCN(c2c([N+](=O)[O-])c(C(Cl)Cl)nn2-c2ccccc2)CC1 |  | inactive: -4.35% |
| CNCC(=O)Nc1c(C)n[nH]c1C | inconclusive: 23.1 µM [activator, partial curve, poor fit] |  |
| Cn1c(=O)[nH]c(=O)c2c1nc(N1CCCC1)n2CCCSc1nnnn1-c1ccccc1 | inconclusive: 29.1 µM [inhibitor, single point] |  |
| O=C1c2ccccc2NC(c2ccc(O)cc2)N1/N=C/c1ccc(O)cc1 (centres undefined) | inconclusive: 23.1 µM [activator, single point] |  |
| CCCC1=C(C(=O)OCC)C(c2cccs2)n2ncnc2N1 (centres undefined) |  | inactive: 0.0688% |
| CCOC(=O)N1CCN(C(=O)C(CC(C)C)NS(=O)(=O)c2ccc3c(c2)oc(=O)n3C)CC1 (centres undefined) |  | inactive: 1.23% |
| CN(C)S(=O)(=O)c1ccc(Cl)c(NC(=O)COC(=O)/C=C/c2ccco2)c1 |  | inactive: 2.27% |
| CC(Oc1ccccc1F)C(=O)Nc1ccc2ccccc2c1 (centres undefined) | inconclusive: 16.4 µM [activator, partial curve] |  |
| CCc1noc(C)c1C(=O)NCCc1ccccc1 | inconclusive: 10.3 µM [activator, partial curve, poor fit] |  |
| CCc1nn(CCCN2CCN(c3cccc(Cl)c3)CC2)c(=O)n1CCOc1ccccc1 | inconclusive: 25.9 µM [inhibitor, single point] |  |

Part of the list above, with each value named.
CN(C)S(=O)(=O)c1ccc(Cl)c(NC(=O)COC(=O)/C=C/c2ccco2)c1
  activity change, negative = inhibition: inactive: 2.27%
CC(Oc1ccccc1F)C(=O)Nc1ccc2ccccc2c1 (centres undefined)
  Potency: inconclusive: 16.4 µM [activator, partial curve]
CCc1noc(C)c1C(=O)NCCc1ccccc1
  Potency: inconclusive: 10.3 µM [activator, partial curve, poor fit]

(next part)

| Structure (SMILES) | Potency | activity change, negative = inhibition |
| --- | --- | --- |
| Cc1csc(=Nc2ccc(S(=O)(=O)N3CCOCC3)cc2)n1Cc1ccco1 | active: 14.6 µM |  |
| COc1ccc2c(c1)[nH]c1c(=O)n(N)cnc12 | inconclusive: 16.4 µM [activator, partial curve] |  |
| COc1cccc(NC(=O)c2ccccc2-c2nc(-c3ccc(F)cc3)no2)c1 | inconclusive: 18.4 µM [inhibitor, partial curve] |  |
| COCCN=c1scc(-c2cc(OC)ccc2OC)n1/N=C/c1c[nH]c2ccccc12 | inconclusive: 29.1 µM [inhibitor, single point] |  |
| Cc1ccc2nc(-c3ccc(SCC(=O)N4CCc5ccccc54)nc3)[nH]c2c1 | inconclusive: 20.6 µM [inhibitor, single point] |  |
| CCOC(=O)C1(CCOc2ccccc2)CCN(Cc2cccc3nonc23)CC1 | inconclusive: 25.9 µM [inhibitor, single point] |  |
| O=c1cc(-c2cccc(Br)c2)oc2cccc(O)c12 | inconclusive: 25.9 µM [activator, single point] |  |
| COCC(=O)Nc1nc2n(n1)C(c1ccc(Cl)cc1)CC(c1ccc(OC)cc1)N2 (centres undefined) |  | inactive: -24.2% |
| COC(=O)c1sc(NC(=O)c2ccc(Cn3cc(Cl)cn3)o2)c(C#N)c1C | inconclusive: 16.4 µM [inhibitor, single point] |  |
| CC1CCCCN1C(=O)Cc1ccc(Cl)cc1 (centres undefined) | inconclusive: 16.4 µM [activator, partial curve] |  |
| CCOc1cc(-c2cn(S(=O)(=O)c3cccc4nsnc34)nc2N)cc(OCC)c1OCC | inconclusive: 8.2 µM [inhibitor, partial curve] |  |
| COc1ccc(-c2ccc(SCC(=O)N3c4ccccc4CC3C)nn2)cc1OC (centres undefined) | active: 16.4 µM |  |
| Cc1ccnc(NS(=O)(=O)c2ccccc2)c1 |  | inactive: 1.38% |
| C/C(=N\NC(=O)c1cc(-c2cccnc2)nc2ccccc12)c1ccccc1O | inconclusive: 2.91 µM [inhibitor, partial curve, poor fit] |  |
| Cc1ccc(NC(=O)CSc2nnc3ccccn23)cc1 | inconclusive: 23.1 µM [activator, partial curve] |  |
| C#CCOCCOCCOCCNc1nc(N2CCN(C(=O)Cn3cc(CCCCN)nn3)CC2)nc(N2CCN(C(=O)Cn3cc(CCCN=C(N)N)nn3)CC2)n1 |  | inactive: 6.4% |
| O=c1cc(CSc2nnc(NC3CCCCC3)s2)nc2sccn12 |  | inactive: 11.4% |
| Cc1ccc(C(=O)Nc2ccc(N3CCN(C)CC3)cc2)cc1C | inconclusive: 1.78 µM [activator, full curve, poor fit] |  |
| COCC(C)N=C1NN=C(c2c[nH]c3ccccc23)CS1 (centres undefined) | inconclusive: 20.6 µM [activator, partial curve] |  |
| O=C(c1cccs1)N1CCCC1 |  | inactive: 0.95% |
| O=C(CN(c1cccc(Cl)c1)S(=O)(=O)c1ccc(Cl)cc1)NCc1ccccn1 | inconclusive: 23.1 µM [inhibitor, single point] |  |
| COC1=CCC2([N+](=O)[O-])CN(CCO)CC1([N+](=O)[O-])C2 (centres undefined) |  | inactive: 4.18% |
| O=C(NN1C(=O)C2C3C=CC(C3)C2C1=O)c1ccccc1 (centres undefined) | inconclusive: 29.1 µM [inhibitor, single point] |  |
